Laboratory results published in the supplement of paper PMC8728848.
Some of the results follow.

Key:
Assay in all cases: glycan array binding signal (z-score within array); higher = stronger binding
Conditions in all cases: glycan notation: IUPAC condensed, linker removed
[1] = target: GalNAc(b1-4)GlcNAc(b1-2)Man(a1-3)[GalNAc(b1-4)GlcNAc(b1-2)Man(a1-6)]Man(b1-4)GlcNAc(b1-4)GlcNAc
Method in brief: (§1)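 Glycan array data were curated from 3228 arrays in the Consortium for Functional Glycomics database and kept only where the protein sequence was available. Glycan names were converted to IUPAC-condensed notation, and columns mapping to the same glycan were averaged. The binding signal is a within-array Z-score, averaged across arrays of the same protein sequence at different concentrations or buffers and across linkers. Negative Z-scores can be read as non-binding.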

[2] = target: GalNAc(b1-4)GlcNAc(b1-3)GalNAc(b1-4)GlcNAc
Method in brief: as §1

GalNAc(b1-4)GlcNAc6S = target: GalNAc(b1-4)GlcNAc6S
Method in brief: as §1

GalNAc(b1-6)GalNAc = target: GalNAc(b1-6)GalNAc
Method in brief: as §1

GalNAc3S(b1-4)GlcNAc = target: GalNAc3S(b1-4)GlcNAc
Method in brief: as §1

GalNAc3S(b1-4)GlcNAc3S = target: GalNAc3S(b1-4)GlcNAc3S
Method in brief: as §1

[3] = target: GalNAc3S(b1-4)[Fuc(a1-3)]GlcNAc
Method in brief: as §1

GalNAc4S6S(b1-4)GlcNAc = target: GalNAc4S6S(b1-4)GlcNAc
Method in brief: as §1

GalNAc6S(b1-4)GlcNAc = target: GalNAc6S(b1-4)GlcNAc
Method in brief: as §1

Glc(a1-4)Glc = target: Glc(a1-4)Glc
Method in brief: as §1

[4] = target: Glc(a1-4)Glc(a1-4)Glc(a1-4)Glc
Method in brief: as §1

Glc(a1-6)Glc(a1-6)Glc = target: Glc(a1-6)Glc(a1-6)Glc
Method in brief: as §1

[5] = target: Glc(a1-6)Glc(a1-6)Glc(a1-6)Glc
Method in brief: as §1

Glc(b1-4)Glc = target: Glc(b1-4)Glc
Method in brief: as §1

Glc(b1-6)Glc = target: Glc(b1-6)Glc
Method in brief: as §1

GlcA(b1-3)Gal = target: GlcA(b1-3)Gal
Method in brief: as §1

GlcA(b1-3)GlcNAc = target: GlcA(b1-3)GlcNAc
Method in brief: as §1

GlcA(b1-6)Gal = target: GlcA(b1-6)Gal
Method in brief: as §1

[6] = target: GlcA3S(b1-3)Gal(b1-4)GlcNAc(b1-2)Man
Method in brief: as §1

[7] = target: GlcA3S(b1-3)Gal(b1-4)GlcNAc(b1-3)Gal(b1-4)Glc
Method in brief: as §1

[8] = target: GlcNAc(a1-3)Gal(b1-4)GlcNAc
Method in brief: as §1

[9] = target: GlcNAc(a1-4)Gal(b1-3)GlcNAc
Method in brief: as §1

[10] = target: GlcNAc(a1-4)Gal(b1-4)GalNAc
Method in brief: as §1

[11] = target: GlcNAc(a1-4)Gal(b1-4)GlcNAc
Method in brief: as §1

[12] = target: GlcNAc(a1-4)Gal(b1-4)GlcNAc(b1-3)Gal(b1-4)Glc
Method in brief: as §1

[13] = target: GlcNAc(a1-4)Gal(b1-4)GlcNAc(b1-3)Gal(b1-4)GlcNAc
Method in brief: as §1

[14] = target: GlcNAc(a1-4)Gal(b1-4)GlcNAc(b1-3)Gal(b1-4)GlcNAc(b1-3)Gal(b1-4)GlcNAc
Method in brief: as §1

[15] = target: GlcNAc(a1-4)Gal(b1-4)GlcNAc(b1-3)Gal(b1-4)[Fuc(a1-3)]GlcNAc(b1-3)Gal(b1-4)[Fuc(a1-3)]GlcNAc
Method in brief: as §1

[16] = target: GlcNAc(a1-6)Gal(b1-4)GlcNAc
Method in brief: as §1

[17] = target: GlcNAc(b1-2)Gal(b1-3)GalNAc
Method in brief: as §1

[18] = target: GlcNAc(b1-2)Man(a1-3)[GlcNAc(b1-2)Man(a1-6)]Man(b1-4)GlcNAc(b1-4)GlcNAc
Method in brief: as §1

[19] = target: GlcNAc(b1-2)Man(a1-3)[GlcNAc(b1-2)Man(a1-6)]Man(b1-4)GlcNAc(b1-4)[Fuc(a1-6)]GlcNAc
Method in brief: as §1

[20] = target: GlcNAc(b1-2)Man(a1-3)[GlcNAc(b1-4)][GlcNAc(b1-2)Man(a1-6)]Man(b1-4)GlcNAc(b1-4)GlcNAc
Method in brief: as §1

[21] = target: GlcNAc(b1-2)Man(a1-3)[GlcNAc(b1-4)][GlcNAc(b1-2)Man(a1-6)]Man(b1-4)GlcNAc(b1-4)[Fuc(a1-6)]GlcNAc
Method in brief: as §1

[22] = target: GlcNAc(b1-2)[GlcNAc(b1-4)]Man(a1-3)[GlcNAc(b1-2)Man(a1-6)]Man(b1-4)GlcNAc(b1-4)GlcNAc
Method in brief: as §1

[23] = target: GlcNAc(b1-2)[GlcNAc(b1-4)]Man(a1-3)[GlcNAc(b1-4)][GlcNAc(b1-2)Man(a1-6)]Man(b1-4)GlcNAc(b1-4)GlcNAc
Method in brief: as §1

[24] = target: GlcNAc(b1-2)[GlcNAc(b1-4)]Man(a1-3)[GlcNAc(b1-4)][GlcNAc(b1-2)[GlcNAc(b1-6)]Man(a1-6)]Man(b1-4)GlcNAc(b1-4)GlcNAc
Method in brief: as §1

[25] = target: GlcNAc(b1-2)[GlcNAc(b1-4)]Man(a1-3)[GlcNAc(b1-4)][GlcNAc(b1-2)[GlcNAc(b1-6)]Man(a1-6)]Man(b1-4)GlcNAc(b1-4)[Fuc(a1-6)]GlcNAc
Method in brief: as §1

[26] = target: GlcNAc(b1-2)[GlcNAc(b1-6)]Man(a1-6)[GlcNAc(b1-2)Man(a1-3)]Man(b1-4)GlcNAc(b1-4)GlcNAc
Method in brief: as §1

[27] = target: GlcNAc(b1-2)[GlcNAc(b1-6)]Man(a1-6)[GlcNAc(b1-2)Man(a1-3)]Man(b1-4)GlcNAc(b1-4)[Fuc(a1-6)]GlcNAc
Method in brief: as §1

[28] = target: GlcNAc(b1-2)[GlcNAc(b1-6)]Man(a1-6)[GlcNAc(b1-4)][GlcNAc(b1-2)Man(a1-3)]Man(b1-4)GlcNAc(b1-4)GlcNAc
Method in brief: as §1

GlcNAc(b1-3)Fuc = target: GlcNAc(b1-3)Fuc
Method in brief: as §1

GlcNAc(b1-3)Gal = target: GlcNAc(b1-3)Gal
Method in brief: as §1

[29] = target: GlcNAc(b1-3)Gal(b1-3)GalNAc
Method in brief: as §1

GlcNAc(b1-3)Gal(b1-4)Glc = target: GlcNAc(b1-3)Gal(b1-4)Glc
Method in brief: as §1

B1: Pbx2CASH domain (Cryptococcus neoformans) (protein)
chain: GIPGPNRLYRLSGPIIFTAADQEIATYGYPTGSERAVLRVEGRNTATAIQGDCRRCARVSVKNLVVDGNRKKLGRMRDFQLATGLVVLGGNEGQSIQNSWIKNPRGFTAIHIREGDKLQCSGARVEKNEIGPVGEEYDPEKDGDDPEMSPLGRPLADGVSIACRDSFIRDNTFRDNTDAAIVVYCSPGTLIHA
Question: For B1, which “glycan array binding signal (z-score)” value [1] is on record?
Answer: The value was -0.612.

Question: And the “glycan array binding signal (z-score)” value [2]?
Answer: The value was -0.433.

Question: And the “glycan array binding signal (z-score)” value (GalNAc(b1-4)GlcNAc6S)?
Answer: The value was -0.367.

Question: What about the “glycan array binding signal (z-score)” value (GalNAc(b1-6)GalNAc) of the same binder?
Answer: The value was -0.644.

Question: And the “glycan array binding signal (z-score)” value (GalNAc3S(b1-4)GlcNAc)?
Answer: The value was -0.633.

Question: And the “glycan array binding signal (z-score)” value (GalNAc3S(b1-4)GlcNAc3S)?
Answer: The value was -0.15.

Question: What about the “glycan array binding signal (z-score)” value [3] of the same binder?
Answer: The value was 0.393.

Question: And the “glycan array binding signal (z-score)” value (GalNAc4S6S(b1-4)GlcNAc)?
Answer: The value was -0.015.

Question: What about the “glycan array binding signal (z-score)” value (GalNAc6S(b1-4)GlcNAc) of the same binder?
Answer: The value was -0.249.

Question: And the “glycan array binding signal (z-score)” value (Glc(a1-4)Glc)?
Answer: The value was -0.557.

Question: What about the “glycan array binding signal (z-score)” value [4] of the same binder?
Answer: The value was -0.59.

Question: And the “glycan array binding signal (z-score)” value (Glc(a1-6)Glc(a1-6)Glc)?
Answer: The value was 0.077.

Question: What about the “glycan array binding signal (z-score)” value [5] of the same binder?
Answer: The value was 0.288.

Question: What about the “glycan array binding signal (z-score)” value (Glc(b1-4)Glc) of the same binder?
Answer: Its value is 0.477.

Question: And the “glycan array binding signal (z-score)” value (Glc(b1-6)Glc)?
Answer: Its value is 0.121.

Question: What about the “glycan array binding signal (z-score)” value (GlcA(b1-3)Gal) of the same binder?
Answer: Its value is 2.02.

Question: What about the “glycan array binding signal (z-score)” value (GlcA(b1-3)GlcNAc) of the same binder?
Answer: Its value is -0.233.

Question: What about the “glycan array binding signal (z-score)” value (GlcA(b1-6)Gal) of the same binder?
Answer: The value was 0.168.

Question: What about the “glycan array binding signal (z-score)” value [6] of the same binder?
Answer: Its value is 2.57.

Question: And the “glycan array binding signal (z-score)” value [7]?
Answer: The value was 0.269.

Question: What about the “glycan array binding signal (z-score)” value [8] of the same binder?
Answer: The value was -0.705.

Question: And the “glycan array binding signal (z-score)” value [9]?
Answer: The value was -0.075.

Question: And the “glycan array binding signal (z-score)” value [10]?
Answer: The value was 0.228.

Question: What about the “glycan array binding signal (z-score)” value [11] of the same binder?
Answer: Its value is -0.496.

Question: What about the “glycan array binding signal (z-score)” value [12] of the same binder?
Answer: The value was 0.631.

Question: What about the “glycan array binding signal (z-score)” value [13] of the same binder?
Answer: Its value is 0.425.

Question: And the “glycan array binding signal (z-score)” value [14]?
Answer: Its value is -0.134.

Question: And the “glycan array binding signal (z-score)” value [15]?
Answer: Its value is 0.225.

Question: And the “glycan array binding signal (z-score)” value [16]?
Answer: Its value is -0.842.

Question: What about the “glycan array binding signal (z-score)” value [17] of the same binder?
Answer: Its value is -0.58.

Question: And the “glycan array binding signal (z-score)” value [18]?
Answer: The value was -0.408.

Question: And the “glycan array binding signal (z-score)” value [19]?
Answer: Its value is 0.191.

Question: What about the “glycan array binding signal (z-score)” value [20] of the same binder?
Answer: The value was -0.39.

Question: And the “glycan array binding signal (z-score)” value [21]?
Answer: Its value is -0.119.

Question: What about the “glycan array binding signal (z-score)” value [22] of the same binder?
Answer: The value was -0.293.

Question: What about the “glycan array binding signal (z-score)” value [23] of the same binder?
Answer: The value was -0.35.

Question: What about the “glycan array binding signal (z-score)” value [24] of the same binder?
Answer: The value was -0.738.

Question: What about the “glycan array binding signal (z-score)” value [25] of the same binder?
Answer: The value was -0.348.

Question: What about the “glycan array binding signal (z-score)” value [26] of the same binder?
Answer: The value was -0.265.

Question: What about the “glycan array binding signal (z-score)” value [27] of the same binder?
Answer: Its value is -0.071.

Question: What about the “glycan array binding signal (z-score)” value [28] of the same binder?
Answer: The value was 0.074.

Question: And the “glycan array binding signal (z-score)” value (GlcNAc(b1-3)Fuc)?
Answer: Its value is -0.946.

Question: What about the “glycan array binding signal (z-score)” value (GlcNAc(b1-3)Gal) of the same binder?
Answer: Its value is -0.697.

Question: And the “glycan array binding signal (z-score)” value [29]?
Answer: Its value is -0.246.

Question: What about the “glycan array binding signal (z-score)” value (GlcNAc(b1-3)Gal(b1-4)Glc) of the same binder?
Answer: The value was 0.072.
